Laboratory results from PubChem BioAssay AID2662 (National Center for Advancing Translational Sciences (NCATS), 2010).
Screen size: about 290,000 compounds; about 110 (0.038%) were called active. Inconclusive results, whose numbers are uncertain, are shown with a selection of clear calls. Calls follow the shape of the dose curve; as a rule, active = well fitted inhibition curve with a large enough effect in the polarisation, with a control signal flat (not every such curve was filed as active); inconclusive = small, poorly fitted or top-dose-only effect, or effect the other way, or a change in a side signal; inactive = no such curve, though single readings can be large or run the other way; the % refers to the polarisation. A potency beside an inconclusive call is a rough fit, not a confirmed value. “Side channel” marks fits to a control or component signal instead of the main read-out.
Potency is read from the fitted curve at half-maximal effect.

Sequences of proteins named here, by UniProt entry; tags and fusion partners are left off.
UniProt Q03164, whole entry, looked up: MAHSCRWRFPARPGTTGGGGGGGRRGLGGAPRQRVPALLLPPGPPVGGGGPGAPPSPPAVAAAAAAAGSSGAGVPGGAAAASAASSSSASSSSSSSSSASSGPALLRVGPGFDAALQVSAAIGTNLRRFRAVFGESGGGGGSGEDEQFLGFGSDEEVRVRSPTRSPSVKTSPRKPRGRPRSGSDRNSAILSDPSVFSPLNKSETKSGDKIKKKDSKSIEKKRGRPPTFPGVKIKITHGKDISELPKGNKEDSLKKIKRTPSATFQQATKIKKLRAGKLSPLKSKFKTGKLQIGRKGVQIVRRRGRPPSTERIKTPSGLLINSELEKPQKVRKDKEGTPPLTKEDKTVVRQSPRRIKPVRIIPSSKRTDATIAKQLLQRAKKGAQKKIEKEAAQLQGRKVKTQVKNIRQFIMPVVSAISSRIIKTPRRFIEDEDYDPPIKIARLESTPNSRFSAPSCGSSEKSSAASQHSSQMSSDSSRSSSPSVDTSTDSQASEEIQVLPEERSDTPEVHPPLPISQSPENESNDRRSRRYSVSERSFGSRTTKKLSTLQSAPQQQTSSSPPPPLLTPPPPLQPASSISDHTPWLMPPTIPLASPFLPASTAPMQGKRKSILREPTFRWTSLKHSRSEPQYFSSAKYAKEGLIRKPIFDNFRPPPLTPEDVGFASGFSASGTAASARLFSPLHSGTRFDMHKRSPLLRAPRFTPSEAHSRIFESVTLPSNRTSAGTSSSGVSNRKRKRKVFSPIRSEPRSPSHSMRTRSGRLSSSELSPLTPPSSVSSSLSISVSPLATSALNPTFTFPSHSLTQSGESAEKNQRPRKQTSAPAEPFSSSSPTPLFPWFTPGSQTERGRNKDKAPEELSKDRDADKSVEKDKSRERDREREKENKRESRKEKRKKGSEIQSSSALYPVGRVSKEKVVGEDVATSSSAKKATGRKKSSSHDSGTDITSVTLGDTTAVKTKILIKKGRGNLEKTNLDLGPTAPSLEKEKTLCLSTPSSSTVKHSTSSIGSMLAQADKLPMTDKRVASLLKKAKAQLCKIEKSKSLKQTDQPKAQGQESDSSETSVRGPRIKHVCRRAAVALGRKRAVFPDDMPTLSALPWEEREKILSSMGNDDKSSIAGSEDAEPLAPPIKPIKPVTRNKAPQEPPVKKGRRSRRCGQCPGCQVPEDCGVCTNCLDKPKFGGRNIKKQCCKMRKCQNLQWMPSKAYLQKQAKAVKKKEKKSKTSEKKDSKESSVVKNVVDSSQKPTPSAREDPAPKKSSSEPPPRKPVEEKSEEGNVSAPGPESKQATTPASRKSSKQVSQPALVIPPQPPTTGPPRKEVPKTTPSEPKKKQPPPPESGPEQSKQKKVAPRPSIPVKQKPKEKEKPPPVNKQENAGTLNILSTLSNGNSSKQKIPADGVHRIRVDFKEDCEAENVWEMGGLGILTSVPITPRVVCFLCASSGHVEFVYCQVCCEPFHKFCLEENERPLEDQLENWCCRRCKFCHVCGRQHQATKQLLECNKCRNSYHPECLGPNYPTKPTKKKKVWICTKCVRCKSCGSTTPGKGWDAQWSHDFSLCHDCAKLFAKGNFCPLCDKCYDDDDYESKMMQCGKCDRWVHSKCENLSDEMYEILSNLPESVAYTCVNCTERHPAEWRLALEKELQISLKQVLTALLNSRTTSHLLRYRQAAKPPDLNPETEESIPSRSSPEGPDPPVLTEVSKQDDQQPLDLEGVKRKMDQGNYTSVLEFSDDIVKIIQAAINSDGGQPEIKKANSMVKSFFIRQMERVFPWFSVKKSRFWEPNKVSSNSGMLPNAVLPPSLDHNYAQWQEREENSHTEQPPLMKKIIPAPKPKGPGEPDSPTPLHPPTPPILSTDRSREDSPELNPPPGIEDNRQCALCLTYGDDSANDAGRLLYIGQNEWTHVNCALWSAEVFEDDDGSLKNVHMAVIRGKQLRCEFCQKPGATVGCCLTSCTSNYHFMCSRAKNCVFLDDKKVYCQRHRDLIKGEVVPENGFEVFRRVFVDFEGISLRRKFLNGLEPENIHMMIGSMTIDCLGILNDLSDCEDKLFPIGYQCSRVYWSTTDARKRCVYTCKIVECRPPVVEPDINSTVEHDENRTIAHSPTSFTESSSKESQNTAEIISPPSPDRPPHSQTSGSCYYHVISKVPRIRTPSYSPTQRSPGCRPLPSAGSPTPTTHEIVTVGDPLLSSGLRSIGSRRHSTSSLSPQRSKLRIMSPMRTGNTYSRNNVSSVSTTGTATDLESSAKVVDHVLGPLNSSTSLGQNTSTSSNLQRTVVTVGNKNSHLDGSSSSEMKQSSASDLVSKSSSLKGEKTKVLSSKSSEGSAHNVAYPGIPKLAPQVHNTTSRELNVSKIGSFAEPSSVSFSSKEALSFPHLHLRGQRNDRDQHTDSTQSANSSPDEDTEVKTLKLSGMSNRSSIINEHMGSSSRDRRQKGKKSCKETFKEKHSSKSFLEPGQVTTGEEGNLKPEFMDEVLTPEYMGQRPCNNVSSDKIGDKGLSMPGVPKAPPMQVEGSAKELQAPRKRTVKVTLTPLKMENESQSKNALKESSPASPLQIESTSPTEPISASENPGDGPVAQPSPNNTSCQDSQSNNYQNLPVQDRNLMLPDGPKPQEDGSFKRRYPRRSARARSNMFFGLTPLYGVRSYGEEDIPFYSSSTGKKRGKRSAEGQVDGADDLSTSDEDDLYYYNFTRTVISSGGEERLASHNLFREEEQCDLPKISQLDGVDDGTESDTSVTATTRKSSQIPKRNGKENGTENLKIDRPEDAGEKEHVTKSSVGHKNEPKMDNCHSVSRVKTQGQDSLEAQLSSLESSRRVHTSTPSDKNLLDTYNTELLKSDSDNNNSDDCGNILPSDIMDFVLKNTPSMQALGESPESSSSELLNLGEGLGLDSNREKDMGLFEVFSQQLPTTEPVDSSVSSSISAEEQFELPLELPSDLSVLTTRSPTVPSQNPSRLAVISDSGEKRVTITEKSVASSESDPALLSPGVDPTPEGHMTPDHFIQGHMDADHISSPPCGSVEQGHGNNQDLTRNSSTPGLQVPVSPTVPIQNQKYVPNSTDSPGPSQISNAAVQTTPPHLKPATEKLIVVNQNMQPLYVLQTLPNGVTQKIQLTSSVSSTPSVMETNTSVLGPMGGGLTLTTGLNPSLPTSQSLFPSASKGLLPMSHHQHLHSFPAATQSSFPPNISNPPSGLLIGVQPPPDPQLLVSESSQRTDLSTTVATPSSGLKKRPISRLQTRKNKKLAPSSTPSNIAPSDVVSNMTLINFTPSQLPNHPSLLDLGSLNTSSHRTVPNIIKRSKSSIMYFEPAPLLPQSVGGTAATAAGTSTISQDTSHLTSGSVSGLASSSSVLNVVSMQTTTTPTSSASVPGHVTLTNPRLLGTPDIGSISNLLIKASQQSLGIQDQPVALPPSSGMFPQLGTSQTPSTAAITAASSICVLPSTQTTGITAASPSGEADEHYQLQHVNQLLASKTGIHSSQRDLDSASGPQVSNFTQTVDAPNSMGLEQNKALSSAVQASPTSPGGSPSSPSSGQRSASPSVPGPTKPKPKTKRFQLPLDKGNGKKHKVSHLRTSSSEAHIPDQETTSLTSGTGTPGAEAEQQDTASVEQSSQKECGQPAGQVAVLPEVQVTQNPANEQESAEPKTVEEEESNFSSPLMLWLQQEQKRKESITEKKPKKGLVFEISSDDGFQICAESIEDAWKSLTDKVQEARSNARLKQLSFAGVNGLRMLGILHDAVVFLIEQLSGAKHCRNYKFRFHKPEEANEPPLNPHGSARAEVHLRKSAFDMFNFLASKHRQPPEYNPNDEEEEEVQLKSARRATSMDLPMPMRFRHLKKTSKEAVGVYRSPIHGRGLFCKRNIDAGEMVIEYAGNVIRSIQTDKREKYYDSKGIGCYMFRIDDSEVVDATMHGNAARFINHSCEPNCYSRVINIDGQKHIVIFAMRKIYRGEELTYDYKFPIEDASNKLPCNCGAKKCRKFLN

The compounds below were run against Histone-lysine N-methyltransferase 2A (Homo sapiens) (UniProt Q03164) (assay: qHTS Fluorescence Polarization Assay for Inhibitors of MLL CXXC domain - DNA interaction). Conditions: MLL-CXXC / FITC-HOXA9 DNA fluorescence polarization; series mostly up to 115 µM.
How it was run: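 Steps: dispense CXXC domain solution (7 uM) → pin compounds or unlabeled HOX-A9 DNA control → 5 min ambient → add FLSN-HOX-A9 solution (50 nM) → spin → 30 min ambient → fluorescence polarization. Tris pH 7.5/NaCl/DTT/BSA buffer.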
With CCOC(=O)c1c(/N=C/N(C)C)sc(/C=N/Nc2ccccc2)c1-c1ccccc1Cl the Potency was inconclusive: 63.1 µM [fluorescent, side channel, partial curve, poor fit].
In the case of Cc1c(Cl)c(=O)n2c(=O)c(Cl)c(C)n12, the Potency is reported as inconclusive: 70.8 µM [inhibitor, single point].
With Cc1ccc(-c2c3c(=O)n(C)c(=O)n(C)c3cn2-n2cnnc2)cc1 the Potency was inconclusive: 1.26 µM [inhibitor, full curve, poor fit].
With O=C(N/N=C/c1cc(Cl)cc(Cl)c1O)c1ccncc1 the Potency was inconclusive: 89.1 µM [fluorescent, side channel, single point].
For CCCCCCn1c(=O)[nH]c2nc3cc(N)ccc3nc2c1=O, the Potency was inconclusive: 6.31 µM [fluorescent, side channel, full curve].
With O=C(N/N=C/c1ccc[nH]1)c1cc(-c2cccs2)nc2ccccc12 the Potency was inconclusive: 35.5 µM [fluorescent, side channel, single point].
For COc1cc2nc(N3CCN(C(=O)[C@H]4COc5ccccc5O4)CC3)nc(N)c2cc1OC, the Potency was inconclusive: 31.6 µM [quencher, side channel, partial curve].
In the case of O=C(Nc1ccc(N2CCOCC2)c(Cl)c1)c1ccc(-n2cnnc2)cc1, the Potency is reported as inconclusive: 7.08 µM [fluorescent, side channel, full curve].
For O=C(Nc1ccc(Cl)cn1)c1cccc2c(Br)cccc12, the Potency was inconclusive: 14.1 µM [fluorescent, side channel, single point].
With Cc1cc(O)c(-c2cc(O)c(C)cc2O)cc1O the Potency was “inactive”.
In the case of COC(=O)CC(NS(=O)(=O)c1cccs1)c1ccc2c(c1)OCO2 (stereo not drawn), the Potency is reported as inconclusive: 14.1 µM [fluorescent, side channel, single point].
For CC(=O)c1ccc(S(=O)(=O)N2CCN(S(=O)(=O)c3ccccc3C(F)(F)F)CC2)cc1, the Potency was inconclusive: 89.1 µM [fluorescent, single point].
Clc1ccc(-c2nnc(CSc3nnc(-c4cccs4)n3Cc3ccccc3)o2)cc1 was tested, and the Potency was “inactive”.
With NC(=O)Cn1cc(/C=N\NS(=O)(=O)c2ccc(Cl)cc2)c2ccccc21 the Potency was inconclusive: 14.1 µM [fluorescent, side channel, single point].
For CCn1c(SCC(=O)NC2CCCC2)nnc1-c1ccoc1C, the Potency was inconclusive: 1.41 µM [quencher, side channel, partial curve, poor fit].
For COc1ccc(C[C@H]2CN3C(=NC[C@H]3Cc3ccccc3)N2CCNC(=O)c2ccc(C)c(Br)c2)cc1, the Potency was inconclusive: 39.8 µM [quencher, side channel, single point].
Cc1ccccc1CS(=O)(=O)c1nnc([C@H](Cc2ccccc2)NC(=O)OC(C)(C)C)o1 was tested, and the Potency was “inactive”.
With Cc1ccc(Oc2nnc(-c3cccs3)c3ccccc23)cc1 the Potency was inconclusive: 7.94 µM [fluorescent, side channel, full curve].
In the case of N#CCc1nn2c3c(cnc2c1C#N)C(=O)CCC3, the Potency is reported as inconclusive: 15.8 µM [fluorescent, side channel, partial curve].
With COc1ccc(/C=C/C(=O)NC(=S)Nc2ccc(S(=O)(=O)Nc3nccnc3OC)cc2)cc1 the Potency was inconclusive: 12.6 µM [inhibitor, full curve, poor fit].
For CCOC(=O)CC(NC(=O)Cc1cccs1)c1ccccc1Cl (stereo not drawn), the Potency was inconclusive: 14.1 µM [inhibitor, single point].
In the case of Cc1cccc(CN2C(=O)/C(=C\c3ccc(C(=O)NCCN4CCOCC4)cc3)Sc3ccccc32)c1, the Potency is reported as “inactive”.
In the case of O=C(O)CCN1C(=O)/C(=C/c2ccc(-c3nc4ccccc4s3)o2)SC1=S, the Potency is reported as inconclusive: 63.1 µM [inhibitor, single point].
N[C@@H](CCC(=O)N[C@H](CSN=O)C(=O)NCC(=O)O)C(=O)O was tested, and the Potency was inconclusive: 79.4 µM [inhibitor, partial curve, poor fit].
CC1=C(C#N)C(c2cccnc2)C2=C(CC(C)(C)CC2=O)N1 (stereo not drawn) was tested, and the Potency was “inactive”.
With O=C(Cn1cc(SCc2ccc(F)cc2)c2ccccc21)N1CCOCC1 the Potency was “inactive”.
With COc1ccccc1CCNC(=O)C1CCC(=O)N(Cc2ccccc2OC)C1 (stereo not drawn) the Potency was “inactive”.
With Fc1ccc(/C=N/NC(=S)Nc2ccc(Cl)cc2Cl)cc1 the Potency was “inactive”.
In the case of Cc1ccccc1CNC(=O)/C=C\C(=O)O, the Potency is reported as inconclusive: 12.6 µM [fluorescent, side channel, single point].
In the case of CCc1cc(OCCN(C)C)ccc1Cl, the Potency is reported as “inactive”.
With CCN(C(=O)CSc1nnc(COc2ccccc2F)n1N)C1CCS(=O)(=O)C1 (stereo not drawn) the Potency was inconclusive: 12.6 µM [fluorescent, side channel, partial curve].
With CCOc1ccc2oc(=O)cc(CN3CCOCC3)c2c1 the Potency was “inactive”.
O=C(Nc1ccc2nc(-c3ccco3)c(-c3ccco3)nc2c1)NC1CC1 was tested, and the Potency was inconclusive: 28.2 µM [inhibitor, partial curve].
For COc1ccc(OC)c(/C=C/C(=O)OCC(=O)Nc2cccc(Oc3ccccc3)c2)c1, the Potency was “inactive”.
For C[C@]12CCC(=O)C=C1[C@H](O)C[C@@H]1[C@@H]2[C@@H](O)C[C@@]2(C)[C@H]1CC[C@]2(O)C(=O)CO, the Potency was inconclusive: 1 µM [fluorescent, side channel, full curve, poor fit].
In the case of CCC1C2CN(C(C)=O)CC=C2C(C#N)=C(N)C1(C#N)C#N (stereo not drawn), the Potency is reported as “inactive”.
In the case of COc1ccccc1C1CCN(Cc2ccccc2Cl)CC1, the Potency is reported as inconclusive: 89.1 µM [inhibitor, single point].
In the case of CCS(=O)(=O)c1ccc(N=Nc2ccc(O)c3ncccc23)c(OC)c1, the Potency is reported as “inactive”.
In the case of CC(C)(C)c1cc[n+](-c2[nH]c(=O)sc2/C=N/NC(=O)c2ccccc2[O-])cc1, the Potency is reported as inconclusive: 44.7 µM [inhibitor, single point].
For CCC(=O)N/C(=N/c1nc(C)cc(C)n1)Nc1ccc(C)cc1, the Potency was inconclusive: 63.1 µM [fluorescent, single point].
In the case of NS(=O)(=O)c1ccc(NC2=CC(=O)C(=O)c3ccccc32)cc1, the Potency is reported as inconclusive: 31.6 µM [inhibitor, partial curve].
For Cn1c(=O)c2ccccc2n2c(=S)[nH]nc12, the Potency was “inactive”.
For CCOc1ccc(-c2c(=O)n(O)c3ccccc3[n+]2[O-])cc1, the Potency was inconclusive: 70.8 µM [fluorescent, side channel, single point].
With Cc1cccc(N(C(=O)c2nsc(Cl)c2Cl)C(C(=O)NC2CCCC2)c2ccc(O)cc2)c1 (stereo not drawn) the Potency was inconclusive: 11.2 µM [quencher, side channel, partial curve].
For Cc1ccc(C(=O)OCC(=O)NC(=O)Cc2ccccc2)c(O)c1, the Potency was inconclusive: 15.8 µM [fluorescent, side channel, single point].
With O=C(c1ccc(Sc2ccccc2)c([N+](=O)[O-])c1)N1CCOCC1 the Potency was inconclusive: 31.6 µM [fluorescent, side channel, partial curve].
O=C(COc1ccc2ccccc2c1)NNC(=O)c1cccs1 was tested, and the Potency was “inactive”.
With O=C(NCC1CCCCC1)C1(CC2CC(c3ccc(Cl)cc3)=NO2)CCNCC1 (stereo not drawn) the Potency was inconclusive: 35.5 µM [quencher, partial curve].
For N#CCc1ccc(NC(=O)c2ccccc2C(=O)Nc2ccc(CC#N)cc2)cc1, the Potency was inconclusive: 35.5 µM [inhibitor, single point].
COc1ccc(-n2nc(C(=O)c3cccs3)cc(-c3nc4ccccc4[nH]3)c2=N)cc1 was tested, and the Potency was inconclusive: 14.1 µM [inhibitor, single point].
CCn1c(SCC(=O)N2CCOCC2)nc2oc3c(Cl)cc(Cl)cc3c(=O)c2c1=O was tested, and the Potency was inconclusive: 35.5 µM [quencher, side channel, partial curve].
CCc1ccc(NC(=O)N2CCCCCC2)cc1 was tested, and the Potency was inconclusive: 3.16 µM [fluorescent, side channel, partial curve].
For COc1ccc(NC(=O)c2ccc(NC(=O)c3cccs3)cc2)cc1, the Potency was inconclusive: 1.58 µM [fluorescent, side channel, full curve].
With NC(=O)C[N+]1(CC#CC(O)(c2ccccc2)c2ccccc2)CCCC1 the Potency was “inactive”.
In the case of CNC(=O)c1csc(-c2ccc(C)cc2)n1, the Potency is reported as “inactive”.
O=C(CCS(=O)(=O)Cc1cccc(Cl)c1)NCCc1ccccc1 was tested, and the Potency was inconclusive: 1.12 µM [fluorescent, side channel, partial curve, poor fit].
CCc1ccc(C(=O)Cc2cc3cccc(OC)c3oc2=O)cc1 was tested, and the Potency was inconclusive: 70.8 µM [fluorescent, side channel, single point].
Cc1c(Cl)cccc1NC(=S)N(C)CCC#N was tested, and the Potency was inconclusive: 70.8 µM [fluorescent, side channel, single point].
For Cc1sc(NC(=O)c2ccco2)c(C(c2cccnc2)N2CCN(CCO)CC2)c1C (stereo not drawn), the Potency was “inactive”.
COc1cc(C(=O)N(C)CC2CCN(CCc3cccc(C(F)(F)F)c3)CC2)ccc1C was tested, and the Potency was inconclusive: 89.1 µM [quencher, side channel, single point].
For Cc1ccc(S(=O)(=O)N2CCN(C(=O)CCn3nc(C)c(C)c3C)CC2)cc1C, the Potency was “inactive”.
In the case of CCOC(=O)CC1C(=O)NCCN1S(=O)(=O)c1ccc(NC(C)=O)cc1 (stereo not drawn), the Potency is reported as inconclusive: 7.94 µM [fluorescent, side channel, single point].
For Cc1nn(C)c(C)c1N1C(=O)c2cccc3c(Br)ccc(c23)C1=O, the Potency was “inactive”.
